From paper PMC9217950
Results are given in words; binding and its absence hold for the method and conditions named. Binding seen in cells or lysates may run through a third protein. Here binding means that the protein was enriched with, or labelled near, the bait; the list need not be complete. For part of these data: No binding means not detected with the bait. For part of these data: Sequences can lack the tags named with a protein. Each block holds one substance with its values, some of them ahead of it.

The chains behind the UniProt entries cited, without tags or fusion partners. Where a name states a change or a piece, a line headed by the entry shows the natural chain unless it says otherwise.
UniProt P19474: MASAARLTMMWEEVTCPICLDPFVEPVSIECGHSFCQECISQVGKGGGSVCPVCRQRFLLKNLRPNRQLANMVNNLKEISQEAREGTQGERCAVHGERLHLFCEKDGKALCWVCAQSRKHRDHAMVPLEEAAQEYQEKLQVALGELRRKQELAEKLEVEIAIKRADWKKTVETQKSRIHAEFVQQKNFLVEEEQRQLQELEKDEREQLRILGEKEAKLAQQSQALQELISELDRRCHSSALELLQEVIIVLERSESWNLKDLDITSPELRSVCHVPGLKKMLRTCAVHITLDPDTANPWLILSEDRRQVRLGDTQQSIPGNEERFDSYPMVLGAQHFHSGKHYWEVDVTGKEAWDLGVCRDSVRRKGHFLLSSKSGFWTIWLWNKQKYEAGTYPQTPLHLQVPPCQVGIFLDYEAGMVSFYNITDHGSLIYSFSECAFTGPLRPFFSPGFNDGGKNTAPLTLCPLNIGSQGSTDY
UniProt O14965: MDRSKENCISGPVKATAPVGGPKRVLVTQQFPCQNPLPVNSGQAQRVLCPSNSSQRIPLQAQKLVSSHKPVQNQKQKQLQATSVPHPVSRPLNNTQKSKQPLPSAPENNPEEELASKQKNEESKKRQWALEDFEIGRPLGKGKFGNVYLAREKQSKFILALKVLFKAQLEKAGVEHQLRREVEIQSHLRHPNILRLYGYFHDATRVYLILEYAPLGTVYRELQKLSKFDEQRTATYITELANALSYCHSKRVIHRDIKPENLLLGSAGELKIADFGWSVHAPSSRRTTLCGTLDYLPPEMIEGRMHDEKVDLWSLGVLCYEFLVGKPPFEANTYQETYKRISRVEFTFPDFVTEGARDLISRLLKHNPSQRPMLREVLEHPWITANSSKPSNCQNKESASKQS
UniProt Q9UJQ4: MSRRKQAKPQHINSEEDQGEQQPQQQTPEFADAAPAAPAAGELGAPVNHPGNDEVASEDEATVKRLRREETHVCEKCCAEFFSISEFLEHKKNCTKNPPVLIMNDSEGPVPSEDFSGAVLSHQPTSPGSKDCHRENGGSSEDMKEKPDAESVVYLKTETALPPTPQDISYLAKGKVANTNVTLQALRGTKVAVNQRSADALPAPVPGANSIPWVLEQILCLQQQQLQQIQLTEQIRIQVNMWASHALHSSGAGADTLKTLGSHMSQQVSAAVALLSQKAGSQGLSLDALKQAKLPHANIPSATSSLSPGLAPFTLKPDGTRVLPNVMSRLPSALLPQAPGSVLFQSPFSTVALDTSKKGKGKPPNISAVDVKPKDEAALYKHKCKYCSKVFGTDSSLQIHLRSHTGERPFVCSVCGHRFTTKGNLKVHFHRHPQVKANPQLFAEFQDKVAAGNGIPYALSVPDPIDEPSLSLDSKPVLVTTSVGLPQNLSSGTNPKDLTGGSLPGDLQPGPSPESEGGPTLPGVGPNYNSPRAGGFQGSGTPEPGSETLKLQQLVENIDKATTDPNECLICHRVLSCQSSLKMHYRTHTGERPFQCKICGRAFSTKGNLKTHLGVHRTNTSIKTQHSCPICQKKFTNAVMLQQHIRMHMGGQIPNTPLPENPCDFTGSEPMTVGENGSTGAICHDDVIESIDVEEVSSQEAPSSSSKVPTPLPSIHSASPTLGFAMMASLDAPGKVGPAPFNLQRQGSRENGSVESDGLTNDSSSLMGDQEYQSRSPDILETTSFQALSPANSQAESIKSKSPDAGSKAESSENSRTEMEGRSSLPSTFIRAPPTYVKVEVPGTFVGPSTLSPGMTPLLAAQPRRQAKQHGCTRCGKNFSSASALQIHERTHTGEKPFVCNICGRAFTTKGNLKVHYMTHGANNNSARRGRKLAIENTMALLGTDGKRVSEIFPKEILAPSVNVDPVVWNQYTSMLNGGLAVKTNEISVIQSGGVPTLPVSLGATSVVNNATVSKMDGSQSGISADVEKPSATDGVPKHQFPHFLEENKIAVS
UniProt P25440: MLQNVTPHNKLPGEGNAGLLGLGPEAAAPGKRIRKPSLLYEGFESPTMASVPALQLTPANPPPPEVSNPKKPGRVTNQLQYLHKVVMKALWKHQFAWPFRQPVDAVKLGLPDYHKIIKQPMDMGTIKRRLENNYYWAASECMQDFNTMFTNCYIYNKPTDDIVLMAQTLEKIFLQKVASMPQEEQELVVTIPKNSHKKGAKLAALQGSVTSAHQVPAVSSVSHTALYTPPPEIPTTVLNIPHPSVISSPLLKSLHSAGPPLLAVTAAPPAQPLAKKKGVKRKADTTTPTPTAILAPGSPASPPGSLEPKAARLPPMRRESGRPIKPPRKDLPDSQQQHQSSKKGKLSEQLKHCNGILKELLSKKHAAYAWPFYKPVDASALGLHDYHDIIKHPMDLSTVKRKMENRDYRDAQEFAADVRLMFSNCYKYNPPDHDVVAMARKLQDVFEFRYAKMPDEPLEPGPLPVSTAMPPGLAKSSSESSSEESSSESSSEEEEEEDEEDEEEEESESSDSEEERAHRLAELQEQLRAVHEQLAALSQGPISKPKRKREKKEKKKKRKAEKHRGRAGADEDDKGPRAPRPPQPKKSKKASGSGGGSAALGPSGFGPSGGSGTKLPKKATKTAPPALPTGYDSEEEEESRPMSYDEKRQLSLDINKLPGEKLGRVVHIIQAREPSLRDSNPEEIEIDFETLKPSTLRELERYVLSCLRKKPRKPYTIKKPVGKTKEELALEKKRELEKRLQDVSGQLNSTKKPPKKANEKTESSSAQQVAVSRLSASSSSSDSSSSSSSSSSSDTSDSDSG
UniProt Q15059: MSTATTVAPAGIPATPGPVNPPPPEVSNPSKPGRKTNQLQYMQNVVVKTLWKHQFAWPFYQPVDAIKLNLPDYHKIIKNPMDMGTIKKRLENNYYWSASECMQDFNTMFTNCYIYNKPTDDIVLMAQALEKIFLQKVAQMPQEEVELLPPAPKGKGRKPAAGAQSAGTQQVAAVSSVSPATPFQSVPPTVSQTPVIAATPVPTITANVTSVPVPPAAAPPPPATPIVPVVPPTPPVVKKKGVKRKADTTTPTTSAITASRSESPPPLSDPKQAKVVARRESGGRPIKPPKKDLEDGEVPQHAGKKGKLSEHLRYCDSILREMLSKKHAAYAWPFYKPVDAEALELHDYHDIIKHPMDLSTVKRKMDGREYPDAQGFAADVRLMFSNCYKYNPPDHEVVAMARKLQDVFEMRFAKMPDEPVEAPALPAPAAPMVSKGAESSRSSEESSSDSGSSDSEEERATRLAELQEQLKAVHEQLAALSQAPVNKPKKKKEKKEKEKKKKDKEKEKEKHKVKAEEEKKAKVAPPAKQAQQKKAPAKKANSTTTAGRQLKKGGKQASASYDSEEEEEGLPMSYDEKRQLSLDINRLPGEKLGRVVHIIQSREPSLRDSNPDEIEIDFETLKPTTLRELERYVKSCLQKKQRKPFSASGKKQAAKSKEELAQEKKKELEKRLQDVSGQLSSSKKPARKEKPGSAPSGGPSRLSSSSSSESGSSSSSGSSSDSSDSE
UniProt P25963: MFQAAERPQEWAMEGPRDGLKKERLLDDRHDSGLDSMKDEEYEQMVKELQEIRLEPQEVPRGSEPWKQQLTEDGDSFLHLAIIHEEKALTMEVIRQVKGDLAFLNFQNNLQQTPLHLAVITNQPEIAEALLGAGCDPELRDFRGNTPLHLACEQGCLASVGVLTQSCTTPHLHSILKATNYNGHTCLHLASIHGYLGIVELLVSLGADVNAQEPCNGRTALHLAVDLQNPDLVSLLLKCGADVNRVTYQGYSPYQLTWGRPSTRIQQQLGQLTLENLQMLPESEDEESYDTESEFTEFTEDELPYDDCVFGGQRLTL
UniProt Q96SW2: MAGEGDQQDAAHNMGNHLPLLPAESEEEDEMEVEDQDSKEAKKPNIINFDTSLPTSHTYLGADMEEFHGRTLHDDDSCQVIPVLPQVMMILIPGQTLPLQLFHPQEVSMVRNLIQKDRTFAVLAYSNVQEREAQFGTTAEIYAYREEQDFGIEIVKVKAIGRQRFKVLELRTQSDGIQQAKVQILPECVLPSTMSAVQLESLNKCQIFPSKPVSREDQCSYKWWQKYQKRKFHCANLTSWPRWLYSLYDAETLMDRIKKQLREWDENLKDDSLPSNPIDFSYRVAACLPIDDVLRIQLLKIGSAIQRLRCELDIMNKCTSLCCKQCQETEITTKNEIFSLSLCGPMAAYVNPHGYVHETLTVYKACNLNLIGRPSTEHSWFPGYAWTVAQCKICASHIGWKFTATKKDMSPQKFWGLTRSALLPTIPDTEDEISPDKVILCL
UniProt Q96J77: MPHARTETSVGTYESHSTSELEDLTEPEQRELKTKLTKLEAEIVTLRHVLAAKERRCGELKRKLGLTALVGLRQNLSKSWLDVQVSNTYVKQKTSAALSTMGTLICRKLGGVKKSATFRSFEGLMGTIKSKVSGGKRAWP

Tests used:
[1] = target: FLAG-GST-TRIM21 (human) (UniProt P19474); test: proximity labelling; CF-PPiD on the diversity protein array: 118 FG-tagged human proteins on glutathione magnetic beads, 1536-well plate, 1x and 3x dual spots; translational mixture of AirID, AirID-TP53 or AirID-IκBα with biotin and ATP; HRP-conjugated anti-biotin antibody; only the target purified
[2] = target: FLAG-GST-AURKA (STK15) (human) (UniProt O14965); test: as above
[3] = target: T1, FLAG-GST-LATS2 (human) (UniProt Q9NRM7); test: as above
T1 sequence: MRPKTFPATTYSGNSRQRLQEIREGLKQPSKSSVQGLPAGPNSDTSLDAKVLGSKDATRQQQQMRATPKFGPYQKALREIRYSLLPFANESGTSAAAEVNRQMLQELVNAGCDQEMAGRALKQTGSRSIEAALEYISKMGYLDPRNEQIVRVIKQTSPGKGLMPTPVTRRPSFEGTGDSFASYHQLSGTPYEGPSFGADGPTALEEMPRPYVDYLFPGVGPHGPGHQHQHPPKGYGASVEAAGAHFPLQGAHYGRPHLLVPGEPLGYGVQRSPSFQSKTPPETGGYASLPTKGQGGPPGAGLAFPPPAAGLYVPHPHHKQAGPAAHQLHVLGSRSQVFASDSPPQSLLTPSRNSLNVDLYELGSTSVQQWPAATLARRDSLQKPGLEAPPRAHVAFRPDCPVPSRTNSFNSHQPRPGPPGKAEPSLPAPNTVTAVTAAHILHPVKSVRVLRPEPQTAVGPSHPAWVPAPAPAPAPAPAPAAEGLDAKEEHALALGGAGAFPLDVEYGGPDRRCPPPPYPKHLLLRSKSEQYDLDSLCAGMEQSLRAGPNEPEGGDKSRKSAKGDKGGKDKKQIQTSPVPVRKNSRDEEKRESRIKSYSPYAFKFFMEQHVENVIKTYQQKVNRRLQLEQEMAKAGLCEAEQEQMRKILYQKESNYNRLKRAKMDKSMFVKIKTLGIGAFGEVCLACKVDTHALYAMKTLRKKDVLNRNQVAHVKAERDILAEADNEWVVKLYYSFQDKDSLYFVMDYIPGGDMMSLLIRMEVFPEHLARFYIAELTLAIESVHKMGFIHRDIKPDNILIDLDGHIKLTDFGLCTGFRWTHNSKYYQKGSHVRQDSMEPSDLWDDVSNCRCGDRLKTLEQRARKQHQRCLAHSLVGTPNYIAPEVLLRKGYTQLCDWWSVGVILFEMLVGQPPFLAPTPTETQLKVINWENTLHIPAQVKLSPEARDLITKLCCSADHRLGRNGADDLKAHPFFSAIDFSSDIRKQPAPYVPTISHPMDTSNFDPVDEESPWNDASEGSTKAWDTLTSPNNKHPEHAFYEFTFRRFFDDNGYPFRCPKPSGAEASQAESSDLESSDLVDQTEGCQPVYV

[4] = target: FLAG-GST-SALL4 (human) (UniProt Q9UJQ4); test: proximity labelling; CF-PPiD on the magnetic plate with pomalidomide; FG-proteins captured on beads, AirID-fused protein in translational mixture; only the target purified
[5] = target: FLAG-GST-BRD2 (human) (UniProt P25440); test: proximity labelling; CF-PPiD on the magnetic plate with DMSO (no compound); FG-proteins captured on beads, AirID-fused protein in translational mixture; only the target purified
[6] = target: FLAG-GST-BRD3 (human) (UniProt Q15059); test: as above
[7] = target: FLAG-GST-SALL4 (human) (UniProt Q9UJQ4); test: as above
[8] = target: FLAG-GST-BRD2 (human) (UniProt P25440); test: proximity labelling; CF-PPiD on the magnetic plate with the PROTAC ARV-825; FG-proteins captured on beads, AirID-fused protein in translational mixture; only the target purified
[9] = target: FLAG-GST-BRD3 (human) (UniProt Q15059); test: as above
[10] = target: FLAG-GST-SALL4 (human) (UniProt Q9UJQ4); test: as above
[11] = target: FLAG-GST-SALL4 (human) (UniProt Q9UJQ4); test: proximity labelling; CF-PPiD on the magnetic plate with 5-hydroxypomalidomide (5HP); FG-proteins captured on beads, AirID-fused protein in translational mixture; only the target purified
[12] = target: AGIA-AirID-IκBα (human) (UniProt P25963); test: proximity labelling; in HEK293T cells stably expressing AGIA-AirID-IκBα, transfected 24 h, 50 µM D-biotin 2 h; lysis in 1% SDS, boiled; streptavidin bead pull-down (STA-PDA), anti-FLAG immunoblot

- binding [1]: no binding
Substance: AirID N-terminally fused to IκBα (from UniProt P25963 1-317) (other; other documents disagree on this pair)

- binding [2]: binds
- binding [3]: no binding
Substance: AirID N-terminally fused to TP53 (from UniProt P04637 1-393)

- binding [4]: no binding
- binding [5]: no binding
- binding [6]: no binding
- binding [7]: no binding
- binding [8]: no binding
- binding [9]: no binding
- binding [10]: no binding
- binding [11]: no binding
Substance: AirID-CRBN-Y384A/W386A mutant (from UniProt Q96SW2 1-442)

- binding [12]: binds
Substance: TPD52L3 in pCAGGS-MCS-FLAG (from UniProt Q96J77 1-140)
